The values below come from PubChem BioAssay AID192 (DTP/NCI, 2004).

The list shows only some results of the screen, not a fair sample: it is rich in T/C values a quarter to a half above the control, in often repeated tests (any T/C) and in doses without a T/C. Other doses and runs of a compound stand elsewhere. T/C is the treated group as % of the vehicle group. Some doses have a count of surviving animals in place of a T/C: the source holds a T/C of zero for them, seemingly a mark for toxic or unscored doses. Some survivor counts are full or nearly so, which does not show that the dose was tolerated: survival well below the control is almost never listed, so the zero probably covers shortened survival too. Counts of survivors are from the toxicity check (mostly the fifth day) where no day follows; animals may have died later. Schedule codes are those of the source, taken here to give the interval after Q, in days (D) or hours (H), and the number of doses after X. Some entries were tested several times; their values stand side by side, smallest first. For survival time, the PubChem record calls one and a half times the control and up active, and a quarter to a half above the control has no call in these data; cut-offs in other NCI protocols can differ. Numbered stars: 1 amine (or outer) side, 2 acyl side, 3 side chain; on linkers, the order of the positions; unused ones are H or OH. Bridge positions count the residues as written; N and C are the ends. Square brackets hold non-standard residues; d marks the D form. Peptide text beside a SMILES is read from it. I, II: the chains in the order shown. ξ: configuration not given here. Actinocin(9to1) = Cc1c2oc3c(C)ccc(C(=O)[*:1])c3nc-2c(C(=O)[*:2])c(N)c1=O; ξPro(4ξ-Me) = CC1CNC(C(=O)O)C1; NMeV = CN[CH](C(=O)O)C(C)C; Aze = O=C(O)[CH]1CCN1; Sar = CNCC(=O)O

The test system of the assay is BDF1 mice, B16 melanoma ip, median survival T/C. The assay is described as follows: NCI In Vivo Anticancer Drug Screen. Data for tumor model B16 Melanoma (intraperitoneal) in B6D2F1 (BDF1) mice. The settings on record: T/C endpoint: median survival time, higher T/C = longer survival. The method in brief: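 Transplantable tumor model; survival or tumor size measured; reported as T/C, treated over vehicle control.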

The mark [1] stands for this setting: dose: 100.0 mg/kg/injection, schedule: Q01DX009 (ip), vehicle: saline.
Setting [2] is: dose: 200.0 mg/kg/injection, schedule: Q01DX009 (ip), vehicle: Klucel (hydroxypropylcellulose) (HPC).
[3] abbreviates: dose: 400.0 mg/kg/injection, schedule: Q01DX009 (ip), vehicle: Klucel (hydroxypropylcellulose) (HPC).
[4] abbreviates: dose: 12.5 mg/kg/injection, schedule: Q01DX009 (ip), vehicle: Klucel (hydroxypropylcellulose) (HPC).
The mark [5] stands for this setting: dose: 25.0 mg/kg/injection, schedule: Q01DX009 (ip), vehicle: Klucel (hydroxypropylcellulose) (HPC).
Setting [6] is: dose: 50.0 mg/kg/injection, schedule: Q01DX009 (ip), vehicle: Klucel (hydroxypropylcellulose) (HPC).
The mark [7] stands for this setting: dose: 50.0 mg/kg/injection, schedule: Q01DX009 (ip), vehicle: saline.
The mark [8] stands for this setting: dose: 25.0 mg/kg/injection, schedule: Q01DX009 (ip), vehicle: saline.
The mark [9] stands for this setting: dose: 50.0 mg/kg/injection, schedule: Q01DX009 (ip), vehicle: saline with Tween-80.
[10] abbreviates: dose: 100.0 mg/kg/injection, schedule: Q01DX009 (ip), vehicle: saline with Tween-80.
The mark [11] stands for this setting: dose: 200.0 mg/kg/injection, schedule: Q01DX009 (ip), vehicle: saline with Tween-80.
[12] abbreviates: dose: 400.0 mg/kg/injection, schedule: Q01DX009 (ip), vehicle: saline with Tween-80.

With `[Br][Ga]([Br])[Br]`, the survivor count under setting [1] is 10 of 10.
As to `COc1cc2c(c(OC)c1OC)-c1ccc(OC)c(=O)cc1C(NC(=O)COc1ccccc1)CC2` (stereo not given), for the setting “dose: 0.63 mg/kg/injection, schedule: Q01DX009 (ip), vehicle: Klucel (hydroxypropylcellulose) (HPC)”, the T/C is 141 % of control. Where the note is “dose: 5.0 mg/kg/injection, schedule: Q01DX009 (ip), vehicle: Klucel (hydroxypropylcellulose) (HPC)”, the survivor count is given as 10 of 10.
`Oc1ccccc1N=Cc1ccc(C=Nc2ccccc2O)cc1`: where the note is “dose: 300.0 mg/kg/injection, schedule: Q01DX009 (ip), vehicle: gum acacia”, the survivor count is given as 10 of 10.
On to `c1ccc2c(c1)C1=NCCN1c1ccccc1-2`, for which the survivor count is listed as 9 of 10 (dose: 40.0 mg/kg/injection, schedule: Q01DX009 (ip), vehicle: saline with Tween-80) and 7 of 10 (dose: 60.0 mg/kg/injection, schedule: Q01DX009 (ip), vehicle: saline with Tween-80).
`O=C(/C=C/C(=O)Oc1ccc(Cl)cc1Cl)Oc1ccc(Cl)cc1Cl`: the survivor count under setting [2] was 10 of 10 and the survivor count under setting [3] is on record as 10 of 10.
`CC[n+]1ccc(Nc2ccc(/C=C/c3ccc4cc(Nc5cc[n+](CC)cc5)ccc4[n+]3CC)cc2)cc1`: the survivor count (dose: 20.0 mg/kg/injection, schedule: Q01DX009 (ip), vehicle: saline) is 0 of 10.
On to `NC(N)=NCCCC(NC(=O)OCc1ccccc1)C(=O)O` (stereo not given), for which the survivor count is, setting by setting: under setting [4], 10 of 10; under setting [5], 10 of 10; under setting [6], 10 of 10; (dose: 100.0 mg/kg/injection, schedule: Q01DX009 (ip), vehicle: Klucel (hydroxypropylcellulose) (HPC)) 10 of 10; under setting [2], 10 of 10; under setting [3], 10 of 10.
Take `CC1CN1P(=O)(OCCC#N)N1CC1C` (stereo not given): the T/C (dose: 400.0 mg/kg/injection, schedule: Q01DX009 (ip), vehicle: saline) is 136 % of control.
`CN(C)CCCC1(C#N)c2ccccc2CCc2ccccc21`: under setting [7], the survivor count is reported as 10 of 10.
On to `Cc1cc(=NO)cc(C)n1O`, for which the survivor count (dose: 100.0 mg/kg/injection, schedule: Q01DX009 (ip), vehicle: distilled water + alcohol) was 10 of 10 and the survivor count (dose: 400.0 mg/kg/injection, schedule: Q01DX009 (ip), vehicle: distilled water + alcohol) was 9 of 10.
`CC(=O)Oc1c(C)c2c(O)c3c1C1=C(OCOC1=C(C)C3=O)C(C)=CC(C)(O)C(O)C(C)C(O)C1C(=O)OC(C(C)/C=C\C=C(C)C(=O)N2)C(C)C1O` (stereo not given): the survivor count is, setting by setting: under setting [8], 10 of 10; under setting [1], 10 of 10; (dose: 200.0 mg/kg/injection, schedule: Q01DX009 (ip), vehicle: saline) 10 of 10.
Consider `Nc1cc(N)cc(Cc2ccccc2)c1`, for which the survivor count under setting [3] is reported as 4 of 10.
Regarding `O=[N+]([O-])c1ccc(/C=N/c2ncc(Br)s2)o1`, the survivor count (dose: 25.0 mg/kg/injection, schedule: Q01DX009 (ip), vehicle: saline with Tween-80) is listed as 10 of 10; the survivor count under setting [9] is given as 10 of 10; the survivor count under setting [10] is 5 of 10.
Turning to `C=CCNCCN1CCN(CCCN2c3ccccc3Sc3ccc(C(F)(F)F)cc32)CC1`, the survivor count reads like this: under setting [8], 10 of 10; (dose: 37.5 mg/kg/injection, schedule: Q04DX003 (ip), vehicle: saline) 10 of 10; under setting [7], 10 of 10; (dose: 85.0 mg/kg/injection, schedule: Q04DX003 (ip), vehicle: saline) 6 of 10; (dose: 125.0 mg/kg/injection, schedule: Q04DX003 (ip), vehicle: saline) 0 of 10.
As to `C[CH2][Pb]([CH2]C)([CH2]C)[O]C(=O)COC`, the survivor count is, setting by setting: (dose: 6.25 mg/kg/injection, schedule: Q01DX009 (ip), vehicle: Klucel (hydroxypropylcellulose) (HPC)) 9 of 10; under setting [4], 0 of 10; under setting [5], 0 of 10; under setting [6], 0 of 10.
In the case of `CCOC(=O)c1ccc(Nc2sc(C(=O)c3ccc(Br)cc3)c(N)c2C#N)cc1`, the survivor count under setting [9] is 10 of 10, the survivor count under setting [10] is reported as 10 of 10, the survivor count under setting [11] is 10 of 10 and the survivor count under setting [12] is on record as 9 of 10.
For `Cc1c2oc3c(C)ccc(C(=O)NC4C(=O)NC(C(C)C)C(=O)N5CCC5C(=O)N(C)CC(=O)N(C)C(C(C)C)C(=O)OC4C)c3nc-2c(C(=O)NC2C(=O)NC(C(C)C)C(=O)N3CCC3C(=O)N(C)CC(=O)N(C)C(C(C)C)C(=O)OC2C)c(N)c1=O` (stereo not given) (I: TV[Aze][Sar][NMeV] / II: TV[Aze][Sar][NMeV]; ester I:1-I:C, II:1-II:C; linker I:N-II:N via Actinocin(9to1); configuration not given here), the T/C runs as follows: (dose: 0.3 mg/kg/injection, schedule: Q04DX003 (ip), vehicle: saline + alcohol) 143 % of control; (dose: 0.45 mg/kg/injection, schedule: Q04DX003 (ip), vehicle: saline + alcohol) 134 % of control; (dose: 75.0 micrograms/kg/injection, schedule: Q01DX009 (ip), vehicle: saline + alcohol) 136 % of control. The survivor count by setting is: (dose: 0.9 mg/kg/injection, schedule: Q04DX003 (ip), vehicle: saline + alcohol) 10 of 10; (dose: 1.2 mg/kg/injection, schedule: Q04DX003 (ip), vehicle: saline + alcohol) 9 of 10 and 10 of 10; (dose: 200.0 micrograms/kg/injection, schedule: Q01DX009 (ip), vehicle: saline + alcohol) 10 of 10; (dose: 300.0 micrograms/kg/injection, schedule: Q01DX009 (ip), vehicle: saline + alcohol) 10 of 10.
Consider `Cc1cccc(OCC(=O)O)c1`, for which the survivor count is, setting by setting: under setting [9], 10 of 10; under setting [10], 10 of 10; under setting [11], 9 of 10.
For `CC(=O)OC1C(C)OC(OC(=O)C2CCC3C(C2)OC2(CC(OC(=O)/C=C/c4ccccc4)C(C)CO2)C32CO2)C(OC2OC(C)C(O)C(OC(C)=O)C2O)C1O` (stereo not given), for the setting “dose: 3.0 mg/kg/injection, schedule: Q01DX009 (ip), vehicle: saline + alcohol”, the T/C was 148 % of control.
As to `Cc1c2oc3c(C)ccc(C(=O)NC4C(=O)NC(C(C)C)C(=O)N5CC(C)CC5C(=O)N(C)CC(=O)N(C)C(C(C)C)C(=O)OC4C)c3nc-2c(C(=O)NC2C(=O)NC(C(C)C)C(=O)N3CC(C)CC3C(=O)N(C)CC(=O)N(C)C(C(C)C)C(=O)OC2C)c(N)c1=O` (stereo not given) (I: TV[ξPro(4ξ-Me)][Sar][NMeV] / II: TV[ξPro(4ξ-Me)][Sar][NMeV]; ester I:1-I:C, II:1-II:C; linker I:N-II:N via Actinocin(9to1); configuration not given here), the T/C runs as follows: (dose: 1.3 mg/kg/injection, schedule: Q04DX003 (ip), vehicle: saline + alcohol) 138 % of control; (dose: 1.94 mg/kg/injection, schedule: Q04DX003 (ip), vehicle: saline + alcohol) 138 % of control; (dose: 2.16 mg/kg/injection, schedule: Q04DX003 (ip), vehicle: saline + alcohol) 138 % of control. For the same compound, the survivor count (dose: 6.0 mg/kg/injection, schedule: Q04DX003 (ip), vehicle: saline + alcohol) is on record as 4 of 7.
With `OCC1OC(n2cnc3c(=S)nc[nH]c32)C(O)C1O` (stereo not given), the survivor count is given as 6 of 6 (dose: 400.0 mg/kg/injection, schedule: Q01DX009 (ip), vehicle: saline sonified); 6 of 6 under setting [12]; 5 of 6 (dose: 800.0 mg/kg/injection, schedule: Q01DX009 (ip), vehicle: saline sonified).
Take `CC(C)=CC(=O)OCC[N+](C)(C)C`: the survivor count reads like this: (dose: 75.0 mg/kg/injection, schedule: Q01DX009 (ip), vehicle: saline) 0 of 10; (dose: 150.0 mg/kg/injection, schedule: Q01DX009 (ip), vehicle: saline) 0 of 10; (dose: 300.0 mg/kg/injection, schedule: Q01DX009 (ip), vehicle: saline) 0 of 10.
